Test results from PubChem BioAssay AID248 (DTP/NCI, 2004).
The list is a part of this screen's results and no random one: it gathers tests that were run many times, whatever their T/C, doses with no T/C, and many T/C values between a quarter and a half above the control. Further doses and runs are listed elsewhere. T/C is the treated group as % of the vehicle group. Some entries give survivors of the animals treated and no T/C: the source holds a T/C of zero for them, seemingly a mark for toxic or unscored doses. Some doses without a T/C left all or most animals alive at the check, yet need not have been tolerated: survival well below the control is almost never listed, so the zero probably covers shortened survival too. Survivors were counted at the toxicity check, usually on the fifth day, unless a day is given; later deaths do not show. Schedule codes are those of the source, read here as Q, the interval in days (D) or hours (H), X, the number of doses. Some schedule codes hold Z or #, which are not explained here. Where survival is the endpoint, the PubChem record calls one and a half times the control and up active, and a quarter to a half above the control has no call in these data; cut-offs in other NCI protocols can differ. Some doses were run more than once; their values stand side by side, smallest first.

Tested on: L1210 leukemia ip in BDF1 mice, survival T/C
Experiment: NCI In Vivo Anticancer Drug Screen. Data for tumor model L1210 Leukemia (intraperitoneal) in B6D2F1 (BDF1) mice
Conditions: T/C endpoint: mean survival time, higher T/C = longer survival

For `N=C(N)N=Nc1ccc(NN=C(N)N)cc1`, the T/C (dose: 15.0 mg/kg/injection, schedule: Q01DX Z (ip), vehicle: saline) was 127 and 138 % of control, the T/C (dose: 30.0 mg/kg/injection, schedule: Q01DX Z (ip), vehicle: saline) was 126 % of control and the survivor count (dose: 120.0 mg/kg/injection, schedule: Q01DX Z (ip), vehicle: saline) was 0 of 6.
`NN1Cc2ccc3c4c(ccc(c24)C1)C=C3` was tested, and the survivor count (dose: 75.0 mg/kg/injection, schedule: Q01DX001 (ip), vehicle: carboxymethylcellulose (CMC)) was 0 of 6, the survivor count (dose: 150.0 mg/kg/injection, schedule: Q01DX001 (ip), vehicle: carboxymethylcellulose (CMC)) was 1 of 6 and the survivor count (dose: 300.0 mg/kg/injection, schedule: Q01DX001 (ip), vehicle: carboxymethylcellulose (CMC)) was 0 of 6.
`CCN(CC)CC(=O)NCC(CCN1CCCCC1)(CCN1CCCCC1)c1cccc2ccccc12` was tested, and the survivor count (dose: 100.0 mg/kg/injection, schedule: Q01DX009 (ip), vehicle: saline) was 6 of 6, the survivor count (dose: 200.0 mg/kg/injection, schedule: Q04DX003 (ip), vehicle: saline) was 1 of 6 and the survivor count (dose: 400.0 mg/kg/injection, schedule: Q04DX003 (ip), vehicle: saline) was 0 of 6.
With `O=C1c2ccccc2Cc2cscc21` the survivor count (dose: 400.0 mg/kg/injection, schedule: Q04DX003 (ip), vehicle: saline with Tween-80) was 0 of 3.
